Data on one molecule can be found in article PMC3610893, “The CouPSTU and TarPQM Transporters in Rhodopseudomonas palustris: Redundant, Promiscuous Uptake Systems for Lignin-Derived Aromatic Substrates” (PLoS ONE, 2013).

This assay concerns the target T1, CouP (RPA1789) periplasmic binding-protein (Rhodopseudomonas palustris, UniProt Q6N8W4).
T1 sequence (Q6N8W4 27-385): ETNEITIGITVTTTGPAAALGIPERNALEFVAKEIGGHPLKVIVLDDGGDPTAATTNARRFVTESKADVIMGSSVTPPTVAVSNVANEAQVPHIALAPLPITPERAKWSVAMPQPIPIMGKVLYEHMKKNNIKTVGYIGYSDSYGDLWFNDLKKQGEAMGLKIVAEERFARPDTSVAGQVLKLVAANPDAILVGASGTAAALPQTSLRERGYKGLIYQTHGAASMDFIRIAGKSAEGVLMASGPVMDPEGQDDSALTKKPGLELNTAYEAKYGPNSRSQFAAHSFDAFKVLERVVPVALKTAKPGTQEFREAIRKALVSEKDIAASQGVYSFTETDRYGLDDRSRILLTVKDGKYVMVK
Put plainly: Intrinsic tryptophan fluorescence spectroscopy / ligand titrations with CouP (RPA1789). The settings on record: refolded protein 0.2 µM, 10 mM Tris-HCl pH 7.4, 30°C, emission 340 nm; three independent titrations; read-out: K d (nM) CouP (RPA1789), fluorescence titrations. As for the experimental part: Pure protein was unfolded by dialysis against 1 L of 6 M urea for 16 hours at 4°C. Refolding was effected by dialysis against 2 L of refolding buffer (50 mM Tris-HCl pH 7.2 plus 100 mM NaCl) for 8 hours, the buffer being changed every 2 hours with a final overnight dialysis. Once removed from the dialysis tubing, protein was centrifuged (13,000×g, 10 mins, 4°C) to remove any precipitated misfolded protein.
Changes in the UV fluorescence of intrinsic tryptophan residues in RPA1782 and RPA1789 were measured using a Cary Eclipse fluorimeter (Varian Ltd, UK) in 10 mM Tris-HCl buffer pH 7.4 at 30°C in a 3 ml volume. Excitation of samples was at 280 nm (5 nm slit width) and emission was recorded at 300–400 nm (20 nm slit width). Ligand titrations were performed with 0.2 µM protein with λex 280 nm λem 340 nm using 5 nm excitation and 20 nm emission slit widths respectively. Except where indicated, data from three independent titrations was used to calculate K d values, by fitting to the quadratic equation for tight binding as previously described.

`O=C(O)C(=O)Cc1ccc(O)cc1` [4-HPP, 4-hydroxyphenylpyruvate]: the Kd was 15 ± 3 nM.
